Construct, isoform or probe ends are uncertain for at least one entry. Where cells or extracts were used, other partners may take part.
System: T3 receptor (thyroid hormone receptor, GC2 pituitary cell nuclear extract) (Rattus norvegicus)
Assay: footprint
Conditions: DNase I protection of antisense strand -179 to -164 in GH enhancer by crude GC2 nuclear extract; buffer A, 22 C; protein in an extract; protein details: 125I-T3 labeled; label: 32P

CAGGGACGTGACCGCA (double strand) [rat GH T3 response element footprint (-179 to -164)]
binding result: binds

Source: US5534418
